We go through one substance from paper doi:10.1101/2020.03.09.979369.

The chains behind the UniProt entries cited, without tags or fusion partners.
UniProt Q921F2: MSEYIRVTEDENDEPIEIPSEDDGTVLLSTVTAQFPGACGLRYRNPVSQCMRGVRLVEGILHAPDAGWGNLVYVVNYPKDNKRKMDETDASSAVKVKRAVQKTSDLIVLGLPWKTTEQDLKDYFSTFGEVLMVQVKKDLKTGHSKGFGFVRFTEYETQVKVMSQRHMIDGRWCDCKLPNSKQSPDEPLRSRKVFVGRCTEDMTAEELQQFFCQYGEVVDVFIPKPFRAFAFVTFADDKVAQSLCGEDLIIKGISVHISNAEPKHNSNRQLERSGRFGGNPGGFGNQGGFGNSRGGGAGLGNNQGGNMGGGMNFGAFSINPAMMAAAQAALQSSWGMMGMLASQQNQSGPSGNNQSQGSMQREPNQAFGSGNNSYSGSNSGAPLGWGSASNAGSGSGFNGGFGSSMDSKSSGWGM
UniProt P28659: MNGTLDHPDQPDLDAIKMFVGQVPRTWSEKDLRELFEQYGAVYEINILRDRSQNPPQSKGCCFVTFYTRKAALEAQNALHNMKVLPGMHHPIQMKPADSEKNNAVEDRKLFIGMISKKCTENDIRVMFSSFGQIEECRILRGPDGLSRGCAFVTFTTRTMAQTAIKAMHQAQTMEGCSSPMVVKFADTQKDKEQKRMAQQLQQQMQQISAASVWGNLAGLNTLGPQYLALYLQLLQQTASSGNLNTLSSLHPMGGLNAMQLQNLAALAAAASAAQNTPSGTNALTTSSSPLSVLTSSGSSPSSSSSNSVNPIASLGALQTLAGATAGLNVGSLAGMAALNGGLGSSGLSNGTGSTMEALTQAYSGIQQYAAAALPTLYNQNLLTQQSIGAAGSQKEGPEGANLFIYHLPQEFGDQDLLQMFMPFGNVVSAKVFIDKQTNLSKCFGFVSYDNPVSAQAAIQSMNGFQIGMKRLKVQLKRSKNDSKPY

For the experiment, the target named is TAR-DNA Binding Protein (TDP-43) (mouse (endogenous in female ESCs)) (UniProt Q921F2). The experiment can be described thus: co-IP.

These are yes or no findings as the source states them, for the method shown. In cells and extracts the contact can be indirect. Some results given as binding are weak or reduced against the parent protein; the word gives no strength.

Consider “CUG-Binding Protein 1 (CELF1) (from UniProt P28659 1-486)”, for which the binding result is “binds”.
